Test results from the supplement of paper PMC4807443.
Where a name gives a salt, the structure may show the parent alone. The list shows a part of the results. The numbers are fractions of the control, whatever unit the source prints. Most entries show no effect beyond the scatter of the controls.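 MIN6 is a mouse insulinoma beta-cell line that stably carries a lentiviral reporter in which the Pdx1 and Ins1 promoters each drive a nucleus-targeted fluorescent protein; cells were counted by automated imaging with a Hoechst nuclear stain. In the screen, a drug was a possible hit when its Ins1 promoter readout lay beyond two median absolute deviations from the DMSO controls while Pdx1 activity stayed near normal.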

What follows are compounds tested on MIN6 (assay: % Pdx1+ Ins1-low (RFP-only, immature) cells relative to DMSO control (fold of DMSO control); higher = more immature Pdx1+/Ins1-low cells). Settings: 8.5 µM; 48 h; glucose 5 mM.

| SMILES | % Pdx1+ Ins1-low |
| --- | --- |
| CN(C)CC/C=C1\c2ccccc2CSc2ccccc21 [Dosulepin hydrochloride] | 1.55 |
| Cc1cc(C(=O)NNCc2ccccc2)no1 [Isocarboxazid] | 1.35 |
| COc1ccc(-c2ccc(=N)n(CCCC(=O)O)n2)cc1 [Gabazine] | 0.727 |
| CO[C@H]1C[C@H](O[C@H]2[C@H](C)[C@@H](O[C@@H]3O[C@H](C)C[C@H](N(C)C)[C@H]3OC(C)=O)[C@@H](C)C[C@@]3(CO3)C(=O)[C@H](C)[C@@H](OC(C)=O)[C@@H](C)[C@@H](C)OC(=O)[C@@H]2C)O[C@@H](C)[C@@H]1OC(C)=O [Troleandomycin] | 0.715 |
| CCCN(CCC)C(=O)C(CCC(=O)O)NC(=O)c1ccccc1 (configuration not stated) [Proglumide] | 1.12 |
| COc1ccc2c(c1)N(C[C@H](C)CN(C)C)c1ccccc1S2 [Methotrimeprazine maleat salt] | 0.996 |
| CN1CCCC(CC2c3ccccc3Sc3ccccc32)C1 (configuration not stated) [Metixene hydrochloride] | 1.52 |
| COc1ccccc1N1CCN(CC(O)COc2cccc3ccccc23)CC1 (configuration not stated) [Naftopidil dihydrochloride] | 0.818 |
| CN1CCC(=C2c3ccccc3CC(=O)c3sccc32)CC1 [Ketotifen fumarate] | 0.983 |
| CCN1C(=O)NC(c2ccccc2)C1=O (configuration not stated) [Ethotoin] | 0.869 |
| CC[C@@H](CC[C@@H](C)[C@H]1CC[C@H]2[C@@H]3CCC4C[C@@H](O)CC[C@]4(C)[C@H]3CC[C@]12C)C(C)C (stereo partly drawn) [Beta-sistosterol] | 0.995 |
| COc1cc(OC)c(C(=O)CCCN2CCCC2)c(OC)c1 [Buflomedil hydrochloride] | 0.966 |
| Nc1c(Br)cc(Br)cc1CN[C@H]1CC[C@H](O)CC1 [Ambroxol hydrochloride] | 1.05 |
| Cn1ccnc1S [Methimazole] | 1 |
| CC(C)(Sc1cc(C(C)(C)C)c(O)c(C(C)(C)C)c1)Sc1cc(C(C)(C)C)c(O)c(C(C)(C)C)c1 [Probucol] | 0.974 |
| CCN[C@H]1C[C@H](C)S(=O)(=O)c2sc(S(N)(=O)=O)cc21 [Dorzolamide hydrochloride] | 0.853 |
| CC(C)/N=c1\cc2n(-c3ccc(Cl)cc3)c3ccccc3nc-2cc1Nc1ccc(Cl)cc1 [Clofazimine] | 1.08 |
| CC(=O)N(O)CCCCCNC(=O)CCC(=O)N(O)CCCCCNC(=O)CCC(=O)N(O)CCCCCN [Deferoxamine mesylate] | 0.841 |
| CC(C)(C(=O)c1cccnc1)c1cccnc1 [Metyrapone] | 0.869 |
| O=c1cc(-c2ccc(O)c(O)c2)oc2cc(O)cc(O)c12 [Luteolin] | 0.809 |
| CN1CCc2cccc3c2[C@H]1Cc1ccc(O)c(O)c1-3 [R(-) Apomorphine hydrochloride hemihydrate] | 1.2 |
| CCC(Cc1c(I)cc(I)c(N)c1I)C(=O)O (configuration not stated) [Iopanoic acid] | 0.846 |
| CCC(NC(C)C)C(O)c1ccc(O)c(O)c1 (configuration not stated) [Isoetharine mesylate salt] | 0.978 |
| CC(C)NC[C@H](O)COc1ccc(CC(N)=O)cc1 [(S)-(-)-Atenolol] | 1.02 |

Reformatted with bars between the fields: two of the compounds above
SMILES | % Pdx1+ Ins1-low
CC(C)(Sc1cc(C(C)(C)C)c(O)c(C(C)(C)C)c1)Sc1cc(C(C)(C)C)c(O)c(C(C)(C)C)c1 [Probucol] | 0.974
CC(C)NC[C@H](O)COc1ccc(CC(N)=O)cc1 [(S)-(-)-Atenolol] | 1.02

Additional compounds follow:

| SMILES | % Pdx1+ Ins1-low |
| --- | --- |
| C[C@@H]1[C@H](O)[C@@H](C)/C=C/C=C/C=C/C=C/C=C/C=C/C=C/[C@H](O[C@@H]2O[C@H](C)[C@@H](O)[C@H](N)[C@@H]2O)C[C@@H]2O[C@](O)(C[C@@H](O)C[C@@H](O)[C@H](O)CC[C@@H](O)C[C@@H](O)CC(=O)O[C@H]1C)C[C@H](O)[C@H]2C(=O)O [Amphotericin B] | 1.26 |
| CO[C@@]1(NC(=O)CSCC#N)C(=O)N2C(C(=O)O)=C(CSc3nnnn3C)CS[C@@H]21 [Cefmetazole sodium salt] | 0.801 |
| C[C@@H]1NC(=O)NC1=O [Methylhydantoin-5-(L)] | 0.538 |
| CN1CCN(C2=Nc3cc(Cl)ccc3Nc3ccccc32)CC1 [Clozapine] | 0.855 |
| NC12CC3CC(CC(C3)C1)C2 [Adamantamine fumarate] | 1.3 |
| Clc1ccc(COC(Cn2ccnc2)c2ccc(Cl)cc2Cl)c(Cl)c1 (configuration not stated) [Miconazole] | 0.981 |
| Cc1cc(=O)n(-c2ccccc2)n1C [Antipyrine] | 0.825 |
| Cn1c([N+](=O)[O-])cnc1COC(N)=O [Ronidazole] | 0.653 |
| CN(C)[C@@H]1C(O)=C(C(N)=O)C(=O)[C@@]2(O)C(O)=C3C(=O)c4c(O)ccc(Cl)c4[C@@H](O)[C@H]3C[C@@H]12 [Demeclocycline hydrochloride] | 0.93 |
| CC(Oc1ccccc1)C(=O)N[C@@H]1C(=O)N2[C@@H]1SC(C)(C)[C@@H]2C(=O)O (some centres not stated) [Phenethicillin potassium salt] | 1.08 |
| N[C@@H](C(=O)N[C@@H]1C(=O)N2C(C(=O)O)=C(Cl)CS[C@H]12)c1ccccc1 [Cefaclor] | 0.892 |
| OC(CCN1CCCCC1)(c1ccccc1)C1CCCCC1 (configuration not stated) [Trihexyphenidyl-D,L Hydrochloride] | 0.831 |
| N=C(N)N/N=C/c1c(Cl)cccc1Cl [Guanabenz acetate] | 1.12 |
| CN(C)CCOC(=O)COc1ccc(Cl)cc1 [Meclofenoxate hydrochloride] | 0.572 |
| Nc1cc(-c2ccncc2)c[nH]c1=O [Amrinone] | 1.06 |
| c1ccc2c(c1)CCCc1cc(NCCN3CCOCC3)nnc1-2 | 1.05 |
| CCC(=O)OCC(=O)[C@@]1(OC(=O)CC)[C@H](C)C[C@H]2[C@H]3[C@H]([C@@H](O)C[C@@]21C)[C@@]1(C)C=CC(=O)C=C1C[C@H]3Cl [Alclometasone dipropionate] | 0.743 |
| Cc1ccccc1N1C(=O)c2cc(S(N)(=O)=O)c(Cl)cc2NC1C (configuration not stated) [Metolazone] | 1.02 |
| C=CC1=C(C(=O)O)N2C(=O)[C@@H](NC(=O)/C(=N\OCC(=O)O)c3csc(N)n3)[C@H]2SC1 [Cefixime] | 0.725 |
| OCCOCCN1CCN(C(c2ccccc2)c2ccc(Cl)cc2)CC1 (configuration not stated) [Hydroxyzine dihydrochloride] | 0.792 |
| CC(=O)Nc1ccc(O)cc1 [Acetaminophen] | 1.13 |
| COc1ccc2[nH]c([S+]([O-])Cc3ncc(C)c(OC)c3C)nc2c1 (configuration not stated) [Omeprazole] | 0.661 |
| CCOC(=O)[C@H](CCc1ccccc1)N[C@@H](C)C(=O)N1CCC[C@H]1C(=O)O [Enalapril maleate] | 1.23 |
| CO/N=C(\C(=O)N[C@@H]1C(=O)N2C(C(=O)O)=C(C[N+]3(C)CCCC3)CS[C@H]12)c1csc(N)n1 [Cefepime hydrochloride] | 0.714 |

| SMILES | % Pdx1+ Ins1-low |
| --- | --- |
| CC[N+](CC)(CC)CCC(O)(c1ccccc1)C1CCCCC1 (configuration not stated) [Tridihexethyl chloride] | 1.36 |
| Cc1noc(NS(=O)(=O)c2ccc(N)cc2)c1C [Sulfisoxazole] | 0.492 |
| CCc1cccc2c3c([nH]c12)C(CC)(CC(=O)O)OCC3 (configuration not stated) [Etodolac] | 0.949 |
| C[C@]12CC[C@@H]3c4ccc(O)cc4CC[C@H]3[C@@H]1C[C@@H](O)[C@@H]2O [Estriol] | 0.818 |
| CN(C)CCCO[C@@H]1[C@H]2OC(C)(C)O[C@H]2O[C@@H]1[C@H](O)CO [Amiprilose hydrochloride] | 1.34 |
| CC1=C(CC(=O)O)c2cc(F)ccc2/C1=C\c1ccc([S+](C)[O-])cc1 (configuration not stated) [Sulindac] | 1.03 |
| C=C1C[C@]23C[C@@]1(O)CC[C@H]2[C@@]12C=C[C@H](O)[C@@](C)(C(=O)O1)[C@H]2[C@@H]3C(=O)O [Gibberellic acid] | 0.613 |
| CC1CS(=O)(=O)CCN1/N=C/c1ccc([N+](=O)[O-])o1 (configuration not stated) [Nifurtimox] | 0.87 |
| CN1[C@@H](CC(=O)c2ccccc2)CCC[C@H]1C[C@H](O)c1ccccc1 [Lobeline alpha (-) hydrochoride] | 0.999 |
| c1ccc2[nH]c(-c3cscn3)nc2c1 [Tiabendazole] | 0.925 |
| CC(=O)N(CC(C)C(=O)O)c1c(I)cc(I)c(N)c1I (configuration not stated) [Iocetamic acid] | 1.36 |
| CN(C)[C@@H]1C(O)=C(C(N)=O)C(=O)[C@@]2(O)C(O)=C3C(=O)c4c(O)ccc(Cl)c4[C@@](C)(O)[C@H]3C[C@@H]12 [Chlortetracycline hydrochloride] | 0.971 |
| C[C@]12CC[C@@H]3c4ccc(O)cc4CC[C@H]3[C@@H]1CCC2=O [Estrone] | 1.02 |
| CCOC(=O)C1=C[C@]2(CC)CCCN3CCc4c(n1c1ccccc41)[C@@H]32 [Vinpocetine] | 1.01 |
| CNCCC(Oc1ccccc1OC)c1ccccc1 (configuration not stated) [Nisoxetine hydrochloride] | 0.943 |
| Cc1cccc(CN2CCN(C(c3ccccc3)c3ccc(Cl)cc3)CC2)c1 (configuration not stated) [Meclozine dihydrochloride] | 0.918 |
| COc1cnc(NS(=O)(=O)c2ccc(N)cc2)nc1 [Sulfameter] | 0.702 |
| O=C(O)CCC(=O)Nc1ccc(S(=O)(=O)Nc2nccs2)cc1 [Succinylsulfathiazole] | 0.904 |
| COC(=O)[C@@H]1[C@H]2C[C@H]3c4[nH]c5ccccc5c4CCN3C[C@@H]2CC[C@@H]1O [Yohimbine hydrochloride] | 0.722 |
| CCCCC(CC)CNC(=N)NC(=N)NCCCCCCNC(=N)NC(=N)NCC(CC)CCCC (configuration not stated) [Alexidine dihydrochloride] | 0.519 |
| CC1(C)NC(=O)N(c2ccc([N+](=O)[O-])c(C(F)(F)F)c2)C1=O [Nilutamide] | 0.749 |
| CC(C)NCC(O)COc1cccc2ccccc12 (configuration not stated) [Propranolol hydrochloride] | 0.818 |
| Nc1nc(=O)c2c([nH]1)NC[C@@H](CNc1ccc(C(=O)N[C@@H](CCC(=O)O)C(=O)O)cc1)N2C=O [Folinic acid calcium salt] | 1.04 |
| COc1ccc2cc([C@@H](C)C(=O)O)ccc2c1 [(R) -Naproxen sodium salt] | 1.05 |

Gathered by group, the entries above with a thiophene ring, fused or not

| SMILES | % Pdx1+ Ins1-low |
| --- | --- |
| CN1CCC(=C2c3ccccc3CC(=O)c3sccc32)CC1 [Ketotifen fumarate] | 0.983 |
| CCN[C@H]1C[C@H](C)S(=O)(=O)c2sc(S(N)(=O)=O)cc21 [Dorzolamide hydrochloride] | 0.853 |
